Test results from patent publication US12060400B2, “Peptides for use in immunotherapy against cancers” (Immatics Biotechnologies GmbH, priority 2018, dated 2024).

Tested on: HLA molecules of primary tumor and normal tissue samples (cancer entities)
Experiment: Identification and label-free LC-MS quantitation of HLA-presented tumor-associated peptides on tissue samples
Parameters: species or system human
Details: FIGS. 1A-1J; HLA-A*24 positive normal (N=75) versus tumor samples (N=263), MS signal intensities

Substance	over-presentation of the peptide in different cancer tissues
SEQ ID NO.: 362 (NYMDTDNLMF; listed as Homo sapiens)	over-presentation
SEQ ID NO.: 464 (VGGNVTSSF; listed as Homo sapiens)	over-presentation

Same assay, conditions: LC-MS of HLA ligands isolated from tumor tissue samples; cancer entities on which the peptide was presented

Substance	Peptide Presentation on cancer entities
SEQ ID No. 3: peptide found in TRPM8 (gene looked up) (KFLTHDVLTELF; listed as Homo sapiens)	prostate cancer (PRCA)
SEQ ID No. 20: peptide found in CYP4Z1 (gene looked up) (ELMAHPFLL; listed as Homo sapiens)	ovarian cancer (OC) and pancreatic cancer (PACA)

Same assay, conditions: cancer entities on whose tumor tissue samples the HLA-presented peptide was found (LC-MS); abbreviations in the footnotes of Table 8a

Substance	Peptide Presentation on cancer entities
224 (AYLQFLSVL; listed as Homo sapiens) [compound 224]	NSCLCother
111 (IRPDYSFQF; listed as Homo sapiens) [compound 111]	NSCLCadeno
365 (KDLMKAYLF; listed as Homo sapiens) [compound 365]	GC, SCLC
171 (LYTVPFNLI; listed as Homo sapiens) [compound 171]	NSCLCsquam
27 (LSCTATPLF; listed as Homo sapiens) [compound 27]	NSCLCadeno
271 (INGDLVFSF; listed as Homo sapiens) [compound 271]	CLL
93 (TDWSPPPVEF; listed as Homo sapiens) [compound 93]	NSCLCsquam
86 (SYLPTAERL; listed as Homo sapiens) [compound 86]	GBC, GBM, GC, HCC, NSCLCadeno, NSCLCother, NSCLCsquam, PACA, PRCA, UEC
254 (KQHAWLPLTI; listed as Homo sapiens) [compound 254]	NHL
1 (IFPKTGLLII; listed as Homo sapiens) [compound 1]	NSOLCadeno, NSCLCsquam, OSCAR
330 (DYIQMIPEL; listed as Homo sapiens) [compound 330]	BRCA, GBC, GC, SCLC
369 (NFYLFPTTF; listed as Homo sapiens) [compound 369]	GC, NSCLCsquam
292 (KMFPKDFRF; listed as Homo sapiens) [compound 292]	CRC
42 (VYDSIWCNM; listed as Homo sapiens) [compound 42]	UEC
41 (IYFATQVVF; listed as Homo sapiens) [compound 41]	PRCA
375 (YYAADQWVF; listed as Homo sapiens) [compound 375]	AML, GBC, GC, HCC, NHL, NSCLCadeno, NSCLCother, NSCLCsquam, OSCAR, PACA
149 (TQFFIPYTI; listed as Homo sapiens) [compound 149]	CCC, GC, NSCLCsquam, OC
46 (IYPDSIQEL; listed as Homo sapiens) [compound 46]	HCC
189 (FYPDEDDFYF; listed as Homo sapiens) [compound 189]	NSCLCother
355 (VYNNNSSRF; listed as Homo sapiens) [compound 355]	CCC, CRC, GBC, GC, HCC, HNSCC, MEL, NHL, NSCLCadeno, NSCLCother, NSCLCsquam, OC, OSCAR, PACA, PRCA, RCC, SCLC, UEC
5 (LQPQPQLFFSF; listed as Homo sapiens) [compound 5]	PRCA
82 (SYLENSASW; listed as Homo sapiens) [compound 82]	BRCA, HNSCC, NSCLCadeno, OSCAR, SCLC, UEC

Substance	Peptide Presentation on cancer entities
74 (NYVLVPTMF; listed as Homo sapiens) [compound 74]	CCC, CRC, GBC, GC, HCC, NSCLCadeno, NSCLCsquam, OC, UEC
130 (RPEKVFVF; listed as Homo sapiens) [compound 130]	NSCLCadeno
288 (MGKGSISFLF; listed as Homo sapiens) [compound 288]	NSCLCadeno
131 (MHRTWRETF; listed as Homo sapiens) [compound 131]	PRCA
235 (VYISDVSVY; listed as Homo sapiens) [compound 235]	NSCLCadeno
360 (LYITKVTTI; listed as Homo sapiens) [compound 360]	NSCLCadeno
290 (VTPKMLISF; listed as Homo sapiens) [compound 290]	CCC, NSCLCother
52 (SWHKATFLF; listed as Homo sapiens) [compound 52]	AML
338 (VYLTWLPGL; listed as Homo sapiens) [compound 338]	CLL, NHL
248 (CWGPHCFEM; listed as Homo sapiens) [compound 248]	NSCLCsquam
256 (QHAWLPLTI; listed as Homo sapiens) [compound 256]	NHL
173 (RYLSVCERL; listed as Homo sapiens) [compound 173]	NSCLCsquam
159 (VFQPNPLF; listed as Homo sapiens) [compound 159]	UEC
217 (QRYGFSSVGF; listed as Homo sapiens) [compound 217]	HCC
243 (ALFPMGPLTF; listed as Homo sapiens) [compound 243]	CLL
11 (RAMCAMMSF; listed as Homo sapiens) [compound 11]	PACA
180 (IYNKTKMAF; listed as Homo sapiens) [compound 180]	SCLC
209 (DIYVTGGHLF; listed as Homo sapiens) [compound 209]	PRCA
98 (LQIPVSPSF; listed as Homo sapiens) [compound 98]	MEL
210 (EAYSYPPATI; listed as Homo sapiens) [compound 210]	NSCLCadeno, NSCLCsquam
347 (AWLIVLLFL; listed as Homo sapiens) [compound 347]	NHL, UEC
99 (ASAALTGFTF; listed as Homo sapiens) [compound 99]	OC, PRCA

Substance	Peptide Presentation on cancer entities
30 (RQAYSVYAF; listed as Homo sapiens) [compound 30]	PRCA
238 (YTCSRAVSLF; listed as Homo sapiens) [compound 238]	NSCLCadeno
382 (SYPKELMKF; listed as Homo sapiens) [compound 382]	GBC, GC, HNSCC, NSCLCadeno, OC, UEC
158 (SYLKDPMIV; listed as Homo sapiens) [compound 158]	CLL
298 (TYETVMTFF; listed as Homo sapiens) [compound 298]	GBC, GC, HCC, NHL, UBC
286 (HHTQLIFVF; listed as Homo sapiens) [compound 286]	GBC, PRCA
282 (ASYQQSTSSFF; listed as Homo sapiens) [compound 282]	NSCLCadeno
146 (NYFLDPVTI; listed as Homo sapiens) [compound 146]	BRCA, MEL, NSCLCadeno, NSCLCsquam, OC
87 (NYTRLVLQF; listed as Homo sapiens) [compound 87]	CCC, GBC, GC, NSCLCsquam, OSCAR, UEC
45 (YGQSKPWTF; listed as Homo sapiens) [compound 45]	HCC, HNSCC, NSCLCadeno, NSCLCsquam, OSCAR, RCC
162 (YYIGIVEEY; listed as Homo sapiens) [compound 162]	HCC, NSCLCsquam
195 (IYNEHGIQQI; listed as Homo sapiens) [compound 195]	GBM, NSCLCadeno, NSCLCsquam
43 (KYKDHFTEI; listed as Homo sapiens) [compound 43]	BRCA, GBC, NHL, NSCLCadeno, NSCLCsquam
92 (RALTETIMF; listed as Homo sapiens) [compound 92]	UEC
358 (IYANVTEMLL; listed as Homo sapiens) [compound 358]	OSCAR
160 (YIANLISCF; listed as Homo sapiens) [compound 160]	GBC
212 (VYFVQYKIM; listed as Homo sapiens) [compound 212]	UBC
70 (RYTGQWSEW; listed as Homo sapiens) [compound 70]	UBC
91 (KQQVVKFLI; listed as Homo sapiens) [compound 91]	PRCA
296 (YQRPDLLLF; listed as Homo sapiens) [compound 296]	CLL, MEL
